From US10266857B2, “Method for producing Nε-acyl-L-lysine” (AJINOMOTO CO., INC., priority 2015, dated 2019) come the findings set out here.

A short description of this series: Optimum reaction temperature of the enzyme. The settings on record: 30° C. to 80° C., pH 7.0, 50 mM Tris-HCl buffer. The format is biochemical.

B1: RmELA: amidohydrolase native to Rhodothermus marinus (NCBI; WP_012844854.1, SEQ ID NO: 1), Nε-acyl-L-lysine-specific aminoacylase (protein, listed as Rhodothermus marinus)
chain: MLLLPMQARGQADYVLVNGRLYTVDPAQPVAEAMAVRGDRILMVGTTAQLTAAYPDAPHIDLQGRAVVPGFIDAHAHLMGLGLSRLRADLTGTRSVEEILERLREFARQLPEGAWLLGRGWDQNDWPVKEFPTRQMLDEIFPERPVWLVRIDGHAAWANTAAIRRANPALLTEQIPDPEGGHIVRDAEGRLTGVFIDEAMDLIARHIPPPSEAELEEALRRAVAEANRFGLTGVHDAGASLKTIQGYRRAVDDGTLTLRLYVMVDGLGEAFDYFCEHGPLLDYGGRLTVRSVKFYIDGALGSRGAALLADYSDDPGNRGLLRHEPEVFADMVQRAMKCGFQVNTHAIGDRGVRVVLDAYEKALRTLGRTVGRHRVEHAQVVAPEDFARFAELDLIASMQPTHATSDMYWAEDRLGPERVRGAYAWRTFLEHGVRLAFGSDFPVELANPLLGFYAAITRQDAEGWPEGGWYPEQRLTREEALRAFTLDAAYAAFQEHELGSLTPGKYADFVVLSHDIMTVPPEQILQTRVLATFFGGRCVYHDPEAAGLCPASP
As for B1, the optimum reaction temperature turned out to be 75 °C. In addition, the optimum reaction temperature result (listed as protein having the amino acid sequence of SEQ ID NO: 1) was “about 75 °C”.
